Publication PMC11706604
These are yes or no findings as the source states them, for the method shown. Some results given as binding are weak or reduced against the parent protein; the word gives no strength.

Protein sequences, listed by entry. Tags and fused reporters are not part of them.
UniProt O64645: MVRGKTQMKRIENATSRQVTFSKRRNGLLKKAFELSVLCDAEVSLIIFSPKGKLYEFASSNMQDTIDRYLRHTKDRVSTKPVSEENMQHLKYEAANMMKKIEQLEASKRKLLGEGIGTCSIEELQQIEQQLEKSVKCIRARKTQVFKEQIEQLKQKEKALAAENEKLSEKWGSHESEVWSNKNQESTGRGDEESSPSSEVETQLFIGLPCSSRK
UniProt P29386: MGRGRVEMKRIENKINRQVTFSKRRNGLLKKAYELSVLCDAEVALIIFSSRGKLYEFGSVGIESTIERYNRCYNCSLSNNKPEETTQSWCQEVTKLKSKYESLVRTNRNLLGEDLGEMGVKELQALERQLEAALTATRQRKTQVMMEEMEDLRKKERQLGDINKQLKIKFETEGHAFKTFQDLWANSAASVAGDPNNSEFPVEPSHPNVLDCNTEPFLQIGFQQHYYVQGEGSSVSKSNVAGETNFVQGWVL
UniProt Q9FVC1: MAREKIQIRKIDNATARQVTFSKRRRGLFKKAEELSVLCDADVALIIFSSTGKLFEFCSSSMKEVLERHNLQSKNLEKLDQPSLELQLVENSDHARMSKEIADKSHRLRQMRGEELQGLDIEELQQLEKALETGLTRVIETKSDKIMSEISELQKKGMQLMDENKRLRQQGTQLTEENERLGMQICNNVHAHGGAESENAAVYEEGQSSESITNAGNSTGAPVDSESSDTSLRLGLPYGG

How the values were obtained:
[1] = biological target: suppressor of overexpression of CO 1 (SOC1), MADS-box transcription factor (A. thaliana) (UniProt O64645); assay: two-hybrid; GAL4-activation (AD) and GAL4-DNA binding (BD) domains fused to the test proteins; growth on -L-W-H-A or -L-W-H + 10 mM 3-AT, scored after 5 days at 28 °C; Matchmaker Gold and DUALhybrid systems named
[2] = biological target: AGL6, MADS-box transcription factor (A. thaliana) (UniProt P29386); assay: as above

With “short vegetative phase (SVP), MADS-box transcription factor (from UniProt Q9FVC1 1-240)” the binding [1] was “binds” and the binding [2] was “binds”.
